Measurements taken from patent US7217525.
No constants are given. Whether binding was seen depends on the method and setting. Binding seen in cells or lysates may run through a third protein. Some entries that bind do so weakly or less than the wild type.

Sequences of proteins named here, by UniProt entry; tags and fusion partners are left off. Residues count along the entry.
UniProt P19490, residues 19-907: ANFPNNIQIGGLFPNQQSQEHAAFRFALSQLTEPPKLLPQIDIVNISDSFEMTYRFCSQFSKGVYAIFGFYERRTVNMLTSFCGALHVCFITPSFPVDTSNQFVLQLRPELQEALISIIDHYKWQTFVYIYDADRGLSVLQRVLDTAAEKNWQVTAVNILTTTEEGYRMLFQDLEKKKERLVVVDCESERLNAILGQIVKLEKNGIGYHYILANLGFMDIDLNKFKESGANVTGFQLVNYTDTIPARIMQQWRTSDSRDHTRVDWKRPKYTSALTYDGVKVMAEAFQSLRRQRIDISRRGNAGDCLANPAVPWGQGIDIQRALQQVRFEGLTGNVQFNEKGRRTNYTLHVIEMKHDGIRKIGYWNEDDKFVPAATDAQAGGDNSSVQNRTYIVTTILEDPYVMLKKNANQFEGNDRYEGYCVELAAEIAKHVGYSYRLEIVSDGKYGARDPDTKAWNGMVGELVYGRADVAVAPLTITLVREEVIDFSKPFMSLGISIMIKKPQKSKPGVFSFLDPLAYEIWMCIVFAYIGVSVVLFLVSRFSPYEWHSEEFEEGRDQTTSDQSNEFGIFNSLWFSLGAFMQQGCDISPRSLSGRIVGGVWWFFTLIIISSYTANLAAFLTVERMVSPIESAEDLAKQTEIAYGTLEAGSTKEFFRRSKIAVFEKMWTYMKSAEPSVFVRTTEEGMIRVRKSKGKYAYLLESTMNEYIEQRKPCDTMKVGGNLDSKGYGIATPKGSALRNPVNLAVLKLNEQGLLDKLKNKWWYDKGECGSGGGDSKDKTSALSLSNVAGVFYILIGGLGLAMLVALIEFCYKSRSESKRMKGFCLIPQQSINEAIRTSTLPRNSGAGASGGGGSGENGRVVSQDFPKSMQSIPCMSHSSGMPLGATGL

Target: GluR1 (endogenous, rat brain) (rat) (UniProt P19490)
Assay: co-immunoprecipitation from rat brain

B1: Narp (endogenous, rat brain and cultured neurons) (ligand)
chain: AGQAQDNPIPGSRFVCTALPPEAARAGCPLPAMPMQGGALSPEEELRAAVLHWRETVVQQKETLGAQREAIRELTSKLARCEGLAGGKARGTGATGKDTMGDLPRDPGHVVEQLSRSLQTLKDRLESLELQLHTNASNAGLPSDFREVLQRRLGELERQLLRKVAELEDEKSLLHNETSAHRQKTENTLNALLQRVTELERGNSAFKSPDAFKVSLPLRTNYLYGKIKKTLPELYAFTICLWLRSSASPGIGTPFSYAVPGQANEIVLIEWGNNPIELLINDKVAQLPLFVSDGKWHHICITWTTRDGMWEAFQDGEKLGTGENLAPWHPIKPGGVLILGQEQDTVGGRFDATQAFVGELSQFNIWDRVLRAQEIINIANCSTNMPGNIIPWVDNNVDVFGGASKWPVETCEERLLDL
modifications: glycosylated
  binding: binds
